Measurements published in paper PMC3422239.
Substitutions are numbered along the chain they refer to. No constants are given. Whether binding was seen depends on the method and setting. A result given as binding can be weak or reduced; the word gives no strength. For some assays here: Sequences can lack the tags named with a protein.

How the values were obtained:
GFP-IRS2-S303A (mouse) = target: T1, GFP-IRS2-S303A (mouse) (UniProt P81122); assay: far-Western, overlay or dot blot; GFP-tagged IRS-2 pulled down with GFP-Trap from HEK293 or Flp-In HEK293 lysates, SDS-PAGE, nitrocellulose; membrane incubated overnight at 4°C with 14-3-3ζ-HRP, ECL; cells serum starved, IGF-1, or PI-103, wortmannin or Akti-1/2 before IGF-1; both purified
T1 sequence: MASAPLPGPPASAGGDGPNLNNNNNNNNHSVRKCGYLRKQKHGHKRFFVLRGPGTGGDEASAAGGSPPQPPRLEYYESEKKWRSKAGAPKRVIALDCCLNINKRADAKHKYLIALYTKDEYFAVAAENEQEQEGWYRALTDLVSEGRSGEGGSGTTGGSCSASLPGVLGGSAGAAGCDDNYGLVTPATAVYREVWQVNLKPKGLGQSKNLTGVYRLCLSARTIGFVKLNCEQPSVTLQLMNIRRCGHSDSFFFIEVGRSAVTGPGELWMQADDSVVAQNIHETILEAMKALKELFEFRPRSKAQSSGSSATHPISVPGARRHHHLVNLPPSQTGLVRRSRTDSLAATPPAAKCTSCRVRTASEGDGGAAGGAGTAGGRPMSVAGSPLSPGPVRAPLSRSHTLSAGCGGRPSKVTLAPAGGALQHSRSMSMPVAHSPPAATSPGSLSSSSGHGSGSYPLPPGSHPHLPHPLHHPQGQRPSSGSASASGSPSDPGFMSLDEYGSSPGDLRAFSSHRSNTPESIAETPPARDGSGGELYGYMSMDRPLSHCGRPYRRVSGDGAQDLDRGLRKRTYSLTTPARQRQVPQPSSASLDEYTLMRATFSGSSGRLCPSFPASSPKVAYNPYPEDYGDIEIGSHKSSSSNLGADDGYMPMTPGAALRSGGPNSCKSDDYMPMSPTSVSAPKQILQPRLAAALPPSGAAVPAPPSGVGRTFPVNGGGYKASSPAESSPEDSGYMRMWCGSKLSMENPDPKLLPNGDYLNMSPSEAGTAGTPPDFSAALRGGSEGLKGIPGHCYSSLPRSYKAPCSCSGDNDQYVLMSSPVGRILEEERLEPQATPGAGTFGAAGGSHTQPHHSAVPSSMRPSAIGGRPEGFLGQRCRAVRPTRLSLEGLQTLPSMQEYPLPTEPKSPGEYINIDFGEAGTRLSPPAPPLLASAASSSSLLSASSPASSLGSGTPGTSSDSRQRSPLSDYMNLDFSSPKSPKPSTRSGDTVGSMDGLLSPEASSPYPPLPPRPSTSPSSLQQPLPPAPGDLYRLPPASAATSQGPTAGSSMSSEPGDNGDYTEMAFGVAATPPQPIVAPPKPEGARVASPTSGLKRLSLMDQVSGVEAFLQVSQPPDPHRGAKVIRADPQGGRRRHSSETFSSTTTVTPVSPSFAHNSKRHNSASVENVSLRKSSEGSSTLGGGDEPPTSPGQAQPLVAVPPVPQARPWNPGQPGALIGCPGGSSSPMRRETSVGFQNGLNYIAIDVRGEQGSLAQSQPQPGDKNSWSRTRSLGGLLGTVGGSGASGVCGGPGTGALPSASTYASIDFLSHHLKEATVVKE

[1] = target: T2, endogenous IRS-2 of mouse liver (mouse (endogenous in C57Bl/6 liver)) (UniProt P81122); assay: far-Western, overlay or dot blot; IRS-2 immunoprecipitated with IRS-2 antibody from 500 µg mouse liver protein, SDS-PAGE, nitrocellulose; overlay with 14-3-3ζ-HRP; mice fasted, insulin injected (10 or 30 min) or refed 4 hours; both purified
T2 sequence: T1 sequence with A303S

binding (GFP-IRS2-S303A (mouse)): binds
binding [1]: binds
Substance: Recombinant human 14-3-3ζ-HRP
